Results published in article PMC6696373 (Molecules, 2019).
HELM strings list residues between dots; [ac] is acetyl, [am] amide, other brackets name non-standard units.

Assay: peptide made by a vendor
Conditions: whole synthesis

PEPTIDE1{W.G.A.P.S.L}$$$$V2.0
purity (crude or final not stated): 90% purity
